Protein sequences, listed by entry. Tags and fused reporters are not part of them. Residues count along the entry.
UniProt P05107, residues 23-769: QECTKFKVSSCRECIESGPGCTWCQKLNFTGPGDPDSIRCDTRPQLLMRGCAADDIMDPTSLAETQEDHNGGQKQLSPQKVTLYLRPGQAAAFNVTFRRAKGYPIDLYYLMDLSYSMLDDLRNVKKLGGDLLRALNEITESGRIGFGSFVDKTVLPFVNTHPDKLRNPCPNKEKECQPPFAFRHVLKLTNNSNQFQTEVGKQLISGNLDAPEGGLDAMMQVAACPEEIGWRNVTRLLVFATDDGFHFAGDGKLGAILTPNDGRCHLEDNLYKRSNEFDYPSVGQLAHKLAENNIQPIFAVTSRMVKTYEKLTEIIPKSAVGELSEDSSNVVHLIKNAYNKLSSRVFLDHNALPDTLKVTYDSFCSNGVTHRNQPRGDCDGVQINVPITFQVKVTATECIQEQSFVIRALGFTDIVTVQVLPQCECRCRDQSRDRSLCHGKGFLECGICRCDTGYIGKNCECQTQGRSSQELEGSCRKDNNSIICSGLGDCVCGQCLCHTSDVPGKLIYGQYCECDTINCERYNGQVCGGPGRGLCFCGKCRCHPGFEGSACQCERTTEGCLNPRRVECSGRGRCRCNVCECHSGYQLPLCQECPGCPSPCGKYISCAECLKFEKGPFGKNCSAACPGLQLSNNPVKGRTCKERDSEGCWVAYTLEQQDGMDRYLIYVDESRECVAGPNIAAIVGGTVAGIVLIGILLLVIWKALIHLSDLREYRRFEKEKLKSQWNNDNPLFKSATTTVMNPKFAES
UniProt P28907: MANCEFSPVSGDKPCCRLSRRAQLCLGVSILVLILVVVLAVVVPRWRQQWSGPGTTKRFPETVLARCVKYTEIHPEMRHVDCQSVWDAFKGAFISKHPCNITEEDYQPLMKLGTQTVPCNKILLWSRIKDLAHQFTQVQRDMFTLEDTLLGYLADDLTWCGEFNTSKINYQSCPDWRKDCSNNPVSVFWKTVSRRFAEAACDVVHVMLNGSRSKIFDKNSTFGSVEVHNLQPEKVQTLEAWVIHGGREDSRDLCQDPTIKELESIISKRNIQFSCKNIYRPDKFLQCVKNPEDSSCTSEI

In paper PMC12137850:

T1: GFP-tagged CD151 (human) (UniProt P48509)
T1 sequence: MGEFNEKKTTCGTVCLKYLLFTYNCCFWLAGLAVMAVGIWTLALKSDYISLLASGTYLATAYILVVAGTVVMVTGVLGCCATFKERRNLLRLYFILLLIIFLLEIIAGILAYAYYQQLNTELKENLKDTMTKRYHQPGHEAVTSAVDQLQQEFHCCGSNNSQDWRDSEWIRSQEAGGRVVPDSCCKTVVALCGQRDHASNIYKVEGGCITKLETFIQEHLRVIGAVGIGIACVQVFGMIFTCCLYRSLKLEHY

B1: integrin beta 7 (ITGB7) (protein, UniProt P26010 20-798)
chain: ELDAKIPSTGDATEWRNPHLSMLGSCQPAPSCQKCILSHPSCAWCKQLNFTASGEAEARRCARREELLARGCPLEELEEPRGQQEVLQDQPLSQGARGEGATQLAPQRVRVTLRPGEPQQLQVRFLRAEGYPVDLYYLMDLSYSMKDDLERVRQLGHALLVRLQEVTHSVRIGFGSFVDKTVLPFVSTVPSKLRHPCPTRLERCQSPFSFHHVLSLTGDAQAFEREVGRQSVSGNLDSPEGGFDAILQAALCQEQIGWRNVSRLLVFTSDDTFHTAGDGKLGGIFMPSDGHCHLDSNGLYSRSTEFDYPSVGQVAQALSAANIQPIFAVTSAALPVYQELSKLIPKSAVGELSEDSSNVVQLIMDAYNSLSSTVTLEHSSLPPGVHISYESQCEGPEKREGKAEDRGQCNHVRINQTVTFWVSLQATHCLPEPHLLRLRALGFSEELIVELHTLCDCNCSDTQPQAPHCSDGQGHLQCGVCSCAPGRLGRLCECSVAELSSPDLESGCRAPNGTGPLCSGKGHCQCGRCSCSGQSSGHLCECDDASCERHEGILCGGFGRCQCGVCHCHANRTGRACECSGDMDSCISPEGGLCSGHGRCKCNRCQCLDGYYGALCDQCPGCKTPCERHRDCAECGAFRTGPLATNCSTACAHTNVTLALAPILDDGWCKERTLDNQLFFFLVEDDARGTVVLRVRPQEKGADHTQAIVLGCVGGIVAVGLGLVLAYRLSVEIYDRREYSRFEKEQQQLNWKQDSNPLYKSAITTTINPRFQEADSPTL
B2: CD37 (protein, UniProt P11049 1-281)
chain: MSAQESCLSLIKYFLFVFNLFFFVLGSLIFCFGIWILIDKTSFVSFVGLAFVPLQIWSKVLAISGIFTMGIALLGCVGALKELRCLLGLYFGMLLLLFATQITLGILISTQRAQLERSLRDVVEKTIQKYGTNPEETAAEESWDYVQFQLRCCGWHYPQDWFQVLILRGNGSEAHRVPCSCYNLSATNDSTILDKVILPQLSRLGHLARSRHSADICAVPAESHIYREGCAQGLQKWLHNNLISIVGICLGVGLLELGFMTLSIFLCRNLDHVYNRLARYR
B3: CD81 (protein, UniProt P60033 1-236)
chain: MGVEGCTKCIKYLLFVFNFVFWLAGGVILGVALWLRHDPQTTNLLYLELGDKPAPNTFYVGIYILIAVGAVMMFVGFLGCYGAIQESQCLLGTFFTCLVILFACEVAAGIWGFVNKDQIAKDVKQFYDQALQQAVVDDDANNAKAVVKTFHETLDCCGSSTLTALTTSVLKNNLCPSGSNIISNLFKEDCHQKIDDLFSGKLYLIGIAAIVVAVIMIFEMILSMVLCCGIRNSSVY
B4: CD20 (MS4A1) (protein, UniProt P11836 1-297)
chain: MTTPRNSVNGTFPAEPMKGPIAMQSGPKPLFRRMSSLVGPTQSFFMRESKTLGAVQIMNGLFHIALGGLLMIPAGIYAPICVTVWYPLWGGIMYIISGSLLAATEKNSRKCLVKGKMIMNSLSLFAAISGMILSIMDILNIKISHFLKMESLNFIRAHTPYINIYNCEPANPSEKNSPSTQYCYSIQSLFLGILSVMLIFAFFQELVIAGIVENEWKRTCSRPKSNIVLLSAEEKKEQTIEIKEEVVGLTETSSQPKNEEDIEIIPIQEEEEEETETNFPEPPQDQESSPIENDSSP

molecular target: T1, GFP-tagged CD151 (human); assay: affinity purification with mass spectrometry; GFP-Trap agarose beads on lysates (1% IGEPAL CA-630 in PBS, protease inhibitors, on ice) of BJAB cells expressing GFP-tagged CD151; enrichment over control beads; in-gel trypsin digest, LC-MS/MS, label-free quantification

binding, binds:
B1
B2
B3
B4

molecular target: T1, GFP-tagged CD151 (human); assay: as above; remark: another data set of the same source

binding, binds:
endogenous integrin beta 2 (ITGB2) (from UniProt P05107 23-769)
integrin alpha 6 (ITGA6) (human (endogenous in BJAB))
CD38 (from UniProt P28907 1-300)

No constants are given. Whether binding was seen depends on the method and setting. Binding seen in cells or lysates may run through a third protein. Here binding means that the protein was enriched with, or labelled near, the bait; the list need not be complete. Where a sequence is shown, tags or fusion partners need not be part of it.
